Assay results: PMC5059718, “Leukocyte trafficking-associated vascular adhesion protein 1 is expressed and functionally active in atherosclerotic plaques” (Scientific Reports, 2016)

Assay: Body weight and plasma lipids after 4-week VAP-1 inhibitor treatment
Assay type: in vivo, mouse (LDLR−/−ApoB100/100)
Conditions: fasting plasma, LJP1586-treated mice (n = 15), mean ± SD
Procedure: The second phase examined the role of VAP-1 in atherosclerotic plaques. Twenty-five LDLR^−/−ApoB^100/100 mice were treated with a VAP-1 inhibitor (LJP1586, Z-3-fluoro-2-(4-methoxybenzyl)allylamine hydrochloride; a kind gift from M. Linnik, La Jolla Pharmaceuticals, San Diego, CA, USA), or with saline. At the age of 2 months, mice were shifted to a high-fat diet for 2 months prior to the start of 4-week treatment, during which they were on normal chow. All mice were housed in an animal facility under standard conditions (12 h light/dark cycle) and allowed access to food and water ad libitum.
During the 4 week treatment period, LDLR^−/−ApoB^100/100 mice received thrice-weekly intraperitoneal (i.p.) injections of a small molecular VAP-1 inhibitor, LJP1586 (Z-3-fluoro-2-(4-methoxybenzyl)allylamine hydrochloride; 0.5 mg/mL diluted in PBS; a kind gift from M. Linnik, La Jolla Pharmaceuticals, San Diego, CA, USA) at a dose of 5 mg/kg. Mice injected with the physiological saline alone (200 μL) served as negative controls. After treatment, all mice were sacrificed and the hearts were collected, formalin-fixed, and paraffin-embedded. Tissues were then cut transversely into 5 μm sections at the level of the coronary ostia. The areas of intima and media were outlined in sections stained with Movat’s pentachrome, and the intima-to-media ratio for each mouse was determined with ImageJ as described previously. Adjacent sections were stained with an anti-mouse Mac-3 antibody to detect activated macrophages in the intima as described above. Sections of aortic ostium were used to determine the area of plaque occupied by macrophages in each mouse because the ostium is easily located due to the presence of valves; it is therefore the most reliable place to compare plaque deposition in individual mice.
Total cholesterol (CHOD-PAP 1489232 kit; Roche Diagnostics GmbH, Mannheim, Germany), choline-containing phospholipids (990–54009; Wako Chemicals GmbH, Neuss, Germany and/or Diagnostic Systems, Holzheim, Germany), and triglycerides (GPO-PAP 1488872 kit; Roche Diagnostics GmbH) were measured using fully enzymatic methods.

For COc1ccc(C/C(=C/F)CN)cc1.Cl [LJP1586, Z-3-fluoro-2-(4-methoxybenzyl)allylamine hydrochloride], the fP-Cholesterol was 8.8 ± 2.2 mmol/L, the fP-HDL-cholesterol was 1.0 ± 0.25 mmol/L and the fP-LDL-cholesterol was 7.1 ± 2.1 mmol/L. It also gave a fP-Triglycerides of 1.5 ± 0.35 mmol/L.
